Measurements published in PubChem BioAssay AID1347423 (Functional Genomics Laboratory (NCATS/FGL), 2020).
The whole screen tested about 52,000 sequences, of which about 210 (0.4%) were called active.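 How the source made its calls: active means gene whose silencing raises cell survival under the drug, median off-target-corrected z-score across its silencing RNAs 2 or more; inactive means the rest.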 The list shows a part of the results.

assay: Resistance to Poly (ADP-Ribose) Polymerase inhibitor: Gene Identification via Genome-wide siRNA Screen; conditions: mouse BRCA2 R2336H ES cells, olaparib, CellTiter-Glo viability; stronger effect = higher value
Outline: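 Mouse BRCA2 R2336H ES cells were reverse-transfected with siRNA (20 nM final), treated at 48 h with 500 nM olaparib, and read by CellTiter-Glo after 72 h. Scores: MAD-based z per siRNA, median per gene, seed off-target correction.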

Sequence | z-score
GCGCAUGAGUGCAAGGAUUTT against Prdm16 | inactive: 1.32
GGAUGUUGAACAAAAGAAGTT against Abce1 | inactive: -0.372
CCCAUUCCUAGGAUUAUCGTT against Arf6 | inactive: 0.238
GGCAUGUGGUUGAAGGCCUTT against Fank1 | inactive: 1.47
GGUCUGAAAGGCAUGAUACTT against Adam4 | inactive: -0.168
GGAAAGAUUUCGAACAAUCTT against Rab1 | inactive: -0.242
GGAACGUAUGAAGUUAAACTT against Cd80 | inactive: 1.58
GCUGGUUUUCAUCUCUAAATT against Slc5a5 | inactive: 0.566
GGGAUUCAUCACUGAAAAGTT against Mell1 | inactive: -0.918
GGAUUACCACAGAGCUUCATT against Rhox3 | inactive: -1.49
GGAUGAAAUCUCCAAGAAATT against Btg3 | inactive: -0.101
GCCAAGAGGUUAAAAGACUTT against Rabep2 | inactive: 0.286
GCUGAUCAAUAACUAUGAUTT against Ezh1 | inactive: 0.925
GGAUUGGGUUACAUACAGATT against Abpe | inactive: 0.428
GGUGUCCAUCUACUAUGGCTT against Prrxl1 | inactive: 0.2
GGGCAUUUGUGAAGUAUAUTT against 4732429I09Rik | inactive: -2.69
CGUCUGUCUGUAUGAAAUUTT against 2810439F02Rik | inactive: -1.11
GGAGGAUCAAAAACUUGUUTT against 4930444A02Rik | inactive: 1.7
CCGAUAAAAGAUGACCUCATT against D17H6S56E-5 | inactive: -1.63
GGAAAGGAAAGCUAUGACATT against Crhr2 | inactive: 1.71
GGGCUCUAGAGUAAAAUAATT against H3f3b | inactive: -2.55
CCUCUUUCAUAACUGAUGUTT against 9830169C18Rik | inactive: -1.73
GGAAAAGUGGACAAAAUUGTT against Ncoa6 | inactive: 1.57
GGAACUUGAGUUGCUACAGTT against Il12rb1 | inactive: -0.805
GCAGAGUGCUCGUAGAGUGTT against D930036F22Rik | inactive: -1.27
GGACUCGAACUCAGAACCATT against Gdf15 | inactive: -0.554
CCGCUUGGCUAGCUUUAUATT against 2810422M04Rik | inactive: -0.16

Sequence | z-score
GAAUGUUUACAUGCCACACTT against C330008L01Rik | inactive: 0.632
GGCAGAAACUAAGAAUGAATT against Mx1 | inactive: -0.613
CCACAAGCUAAUACAUGCUTT against Ubadc1 | inactive: 0.121
GCCAAUAAACGAAACUCUGTT against BC020184 | inactive: -0.666
GCAAGAUCCGAUUUCUGAUTT against Snrpd3 | inactive: -2.48
CGACGUAUCCGUUCUAUAATT against Eif2s1 | inactive: -2
GGUCAUUAUACCAUUGGCATT against Tuba7 | inactive: 0.861
GGUUGUCACCAUCAGUCCUTT against V1ri6 | inactive: 0.462
GGUGGUGAAUAUGAUGAUATT against AW550801 | inactive: -0.482
CGAGCGACUGAAAAGAUAATT against Atad3a | inactive: -0.562
GGGUGAUGCAGAUCAUCGUTT against Prkcq | inactive: -0.275
CGAGUGAACGUGAAAAAUGTT against Myl2 | inactive: 0.324
GCCACGUCUGAACACUUCATT against Vamp8 | inactive: -1.05
GCUAAUCAGGUAGUAAUUCTT against Usp9y | inactive: -0.966
GGAGAUUAGUUGUGACUGATT against Clecsf5 | inactive: -0.073
GCCUAUUCGGAUUAUUGAUTT against Gab1 | inactive: 0.661
GGCCUUUGCUGUGAUGCUGTT against Ormdl3 | inactive: -0.115
GGCUGGAUGAACUUGCUCATT against B230365F16Rik | inactive: 0.704
GGGAUCAUGAAACAUGUCGTT against 1700020D05Rik | inactive: 2.03
GGAAGAGCAUGAGUCGUUUTT against Scarb2 | inactive: -0.209
GCAAAUACGGCGGAUGAACTT against Sesn3 | inactive: -0.331
GGUAUUUAAUGGAAGCCUGTT against C330005M16Rik | inactive: -0.698
GGCUGUUCUUCAAGAAUAUTT against Trim32 | inactive: -0.661
GCUGGAAAAGUGCUGUGGGTT against Sult1c1 | inactive: -1.17
CGGGACCUGUGGAAUUCUCTT against Scap | inactive: 0.337
GCCUGAUCCUAAAUUUCCUTT against Svs1 | inactive: 0.981
GCACUAAAGGGCUUUUCAUTT against Serping1 | inactive: -0.977

Sequence | z-score
CUAUCACAGCCCUGUACUUTT against Olfr694 | inactive: 0.236
GGUAGACCUAAAUAAUAUGTT against LOC380997 | inactive: 1.02
GGGAAGAUGUGGAUGUCAUTT against Oprk1 | inactive: -0.242
GGAGAUCUAGUGAUCUUUUTT against Pank1 | inactive: -0.187
GGACCUCAGUCACUUCCAATT against Etv4 | inactive: -0.421
GGCCCUCAAUGACAUAAGCTT against Srm | inactive: -0.0642
GGACAAACUAGCAACCACUTT against Mtap7 | inactive: -1.98
GGAGCUAUACUGCUUUUCCTT against Mtmr7 | inactive: 0.468
CCCUUAUGAUGUAUUCCUGTT against Ddr2 | inactive: 1.61
GGAUUCAGCAGCUUCAGAATT against 2810428I15Rik | inactive: 1.66
GCGGGAGCGAGAAAAACUGTT against Dhx16 | inactive: -0.907
GCAUGGAACAAGGUUGCUCTT against Pa2g4 | inactive: 0.803
CCCUUACAACUCAAGUAUCTT against 9430095K15Rik | inactive: 0.674
GGCUAUGUUUAUAUCAUCGTT against Klhl10 | inactive: 0.847
GGCUUGAUAUUUGUGGUUGTT against Arf3 | inactive: -0.0612
GGAAGUGUGAUGAAUGAUATT against Cbara1 | inactive: 1.32
GGCAAGGAAGUCUAAAGAATT against Fbxo8 | inactive: -1.12
GCGGCAAGAUUAAUAAGUCTT against Mpzl1 | inactive: -1.21
GGUAUCUGACCUGAGCAUGTT against Msln | inactive: -0.285
GGAUCCUCGGGAGUACAUGTT against BC043118 | inactive: 0.82
CCAAGUUUCCCGGUGAUAATT against Pla2g2a | inactive: -1.6
GGUGUGUGUUCCACUAAAGTT against Ptpn18 | inactive: 1.12
GGAAAUUUUCAAGCUCAAGTT against Gsdmdc1 | inactive: -2.78
CCUGAUAGUAUUUUACGAGTT against 4933402B14Rik | inactive: 0.826
CGCAUUACAUUAGCCAAAATT against AI428795 | inactive: -0.00325
GCCGGGAAGACAAUAACUGTT against Il10 | inactive: -1.09
GGUCUGUGAGGAACAAAAGTT against Ccnd2 | inactive: 0.199

Part of the list above, set out differently.

| Sequence | z-score |
| --- | --- |
| GGACAAACUAGCAACCACUTT against Mtap7 | inactive: -1.98 |
| GCGGGAGCGAGAAAAACUGTT against Dhx16 | inactive: -0.907 |

Some of the entries so far, as comma-separated lines.
Sequence,z-score
GGAUUCAGCAGCUUCAGAATT against 2810428I15Rik,inactive: 1.66
GCGGGAGCGAGAAAAACUGTT against Dhx16,inactive: -0.907
GCAUGGAACAAGGUUGCUCTT against Pa2g4,inactive: 0.803
CCCUUACAACUCAAGUAUCTT against 9430095K15Rik,inactive: 0.674

2 records drawn at random from those above:
Sequence | z-score
GGUCUGAAAGGCAUGAUACTT against Adam4 | inactive: -0.168
GGACCUCAGUCACUUCCAATT against Etv4 | inactive: -0.421

Following part

Sequence | z-score
GGUUAUUAUGACCAAGAAATT against Sf3b1 | inactive: -3.67
GGAGCAAAGGGUAGGGAAATT against 1700052K11Rik | inactive: -1.29
GGUCAGAGAAAUGAUGUCUTT against Osbpl11 | inactive: -1.86
GGCAUUAAAUGAUUACAAGTT against Mtf2 | inactive: 1.11
GGUUCAGCCUGAAAUAGAGTT against Syt5 | inactive: -0.216
GGCACUGAGAUCUGUAAUUTT against D11Ertd498e | inactive: -0.747
CCGAGGAUUUGAAACAGUATT against Pir | inactive: -2.2
GGACUUCUCUGUGAAGAUGTT against Ctsf | inactive: -1.19
GGCACCUAACAAAUUAGUCTT against 4921517N04Rik | inactive: 0.675
GGAGGACUUCCAGAUCCAATT against Robo4 | inactive: 0.15
CCCUGACUUGUCCUUACAATT against Trem3 | inactive: 0.417
GCCAGUGCACUCCUCUUUUTT against Mmrp19 | inactive: 0.352
CCAAUAAGGAAAAAUCUGGTT against Cenpc1 | inactive: 0.87
GGUUCACGGUUUAUAAAGUTT against Sgk3 | inactive: 0.847
GGAAUUUAUUGAGGUCUUUTT against Plcl2 | inactive: 0.0628
GGAGAUGAACCAUUAUGUCTT against Mycbp | inactive: -0.0097
CGGCCUUCAUCUGCCUUUUTT against Olfr1222 | inactive: -2.1
GACCUUUCUCUUCUUGGCUTT against Olfr434 | inactive: 0.528
GGCCAAGUUCCAAACAAGATT against Zfp109 | inactive: -0.049
GGGCUUCUUCAAGAGAACGTT against Nr4a3 | inactive: 1.73
GGACUAUUAGCUCGAACUUTT against Dlx2 | inactive: 0.0363
GGAUAUUCAGGACUUUGAUTT against Slc2a1 | inactive: -0.484
GCAAUCUUGAGUUUGCACATT against Haghl | inactive: 0.745
GGAAAGAAAGGGAACAAAATT against 2810027O19Rik | inactive: -0.8
